Data source: PubChem BioAssay AID1053208 (Peter MacCallum Cancer Centre, 2014)
Shown is an unselected part of about 17,000 deposited reagents. In the full data, 788 (4.7%) got an active call. 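Calls rest on z-score classes alone; an extra cut-off of viability at most 70% of control was not applied to them.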 A reagent listed more than once was tested more than once; the source does not tell the runs apart.

- Assay: 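Synthetic lethal interactions between gene loss and doxorubicin in osteosarcoma cells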 (primary screen)
- System: mouse osteosarcoma cells, early-passage culture from an engineered mouse model of fibroblastic bone tumour
- Reagent: siRNA pool against mouse genes, 40 nM
- Duration: about 120 h (48 h before drug, then 72 h with drug)
- Conditions: doxorubicin 100 nM for 72 h, roughly 30-40% inhibitory dose
- Read-out: 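Luminescent ATP signal taken as viability with or without 100 nM doxorubicin for 72 h; mean of two wells set against non-targeting siRNA and turned into robust z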
- Scale: viability z-score with doxorubicin and doxorubicin viability vs non-targeting: higher = more viable cells under doxorubicin; viability z-score without drug: higher = more viable cells with knock-down alone; z-score of drug to no-drug ratio: higher = less drug sensitisation by knock-down
- Active means: 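a pool counts as active when its viability z-score with doxorubicin is -2 or below and its z-score without drug lies between -2 and 2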

Target gene | combined z-score class | viability z-score with doxorubicin | viability z-score without drug | z-score of drug to no-drug ratio | doxorubicin viability vs non-targeting | Call
Ccr1 | no change with or without drug | -0.45 | 0.17 | -0.45 | 0.9 | inactive
1810024B03Rik | no change with or without drug | 1.8 | 1.18 | 1.12 | 1.1 | inactive
Prpf40a | no change with or without drug | -0.56 | 0.34 | -0.67 | 0.89 | inactive
Cd1d2 | no change with or without drug | 0.67 | 0.84 | 0.22 | 1 | inactive
Gzmg | no change with or without drug | 0.45 | 0.17 | 0.45 | 0.98 | inactive
Krt86 | no change with or without drug | -0.67 | 0.84 | -1.12 | 0.88 | inactive
Mst1 | no change with or without drug | 0.56 | -0.51 | 1.12 | 0.99 | inactive
Hsd11b1 | no change with or without drug | -1.24 | -0.84 | -0.67 | 0.83 | inactive
Neil1 | no change with or without drug | 1.57 | 0.51 | 1.35 | 1.08 | inactive
Gga3 | no change with or without drug | 0 | 1.01 | -0.56 | 0.94 | inactive
Hoxd1 | no change with or without drug | 0.79 | 0.51 | 0.56 | 1.01 | inactive
Atxn7 | no change with or without drug | 0.56 | 1.52 | -0.34 | 0.99 | inactive
Gga1 | no change with or without drug | -0.22 | 1.52 | -1.12 | 0.92 | inactive
Glt8d1 | no change with or without drug | -0.45 | 1.18 | -1.12 | 0.9 | inactive
Naip1 | no change with or without drug | 0.56 | 0.17 | 0.56 | 0.99 | inactive
Bzw2 | no change with or without drug | 0.67 | -0.17 | 0.9 | 1 | inactive
Cnot4 | no change with or without drug | 0.67 | 0.17 | 0.67 | 1 | inactive
Ccdc83 | no change with or without drug | 0.67 | 1.52 | -0.22 | 1 | inactive
Robo4 | no change with or without drug | 0.9 | 1.01 | 0.34 | 1.02 | inactive
Alg12 | no change with or without drug | -0.45 | -1.01 | 0.34 | 0.9 | inactive
Ccdc22 | low cell count with doxorubicin only | -3.15 | 1.01 | -3.71 | 0.66 | active
Abraxas2 | no change with or without drug | -0.9 | -0.67 | -0.34 | 0.86 | inactive
V1rd18 | no change with or without drug | -1.35 | -1.85 | 0 | 0.82 | inactive
Polr1f | low cell count without drug only | -0.22 | -3.04 | 2.36 | 0.92 | inactive
Enpp2 | no change with or without drug | -0.56 | 0.84 | -1.01 | 0.89 | inactive
Tmem54 | high cell count with and without drug | 2.14 | 2.36 | 0.67 | 1.13 | inactive
Kazald1 | no change with or without drug | -0.9 | 0 | -0.79 | 0.86 | inactive
Crls1 | no change with or without drug | -1.24 | -0.17 | -1.12 | 0.83 | inactive
Lrrc14 | no change with or without drug | 0.45 | -0.17 | 0.67 | 0.98 | inactive
Cul4b | no change with or without drug | 0.45 | 0.17 | 0.45 | 0.98 | inactive
Prr14 | no change with or without drug | -0.34 | 0.84 | -0.79 | 0.91 | inactive
Nuak2 | no change with or without drug | 0.22 | 0 | 0.34 | 0.96 | inactive
Nuak2 | no change with or without drug | 0.67 | 0.34 | 0.56 | 1 | inactive
Rb1cc1 | high cell count without drug only | 1.91 | 3.37 | -0.11 | 1.11 | inactive

A stretch of the results above, for reference:
Target gene | combined z-score class | viability z-score with doxorubicin | viability z-score without drug | z-score of drug to no-drug ratio | doxorubicin viability vs non-targeting | Call
Alg12 | no change with or without drug | -0.45 | -1.01 | 0.34 | 0.9 | inactive
Ccdc22 | low cell count with doxorubicin only | -3.15 | 1.01 | -3.71 | 0.66 | active
Abraxas2 | no change with or without drug | -0.9 | -0.67 | -0.34 | 0.86 | inactive
